{"sequences": {"note": "By UniProt entry, the sequences of proteins in these tests, tags left out.", "UniProt P35363, whole entry": "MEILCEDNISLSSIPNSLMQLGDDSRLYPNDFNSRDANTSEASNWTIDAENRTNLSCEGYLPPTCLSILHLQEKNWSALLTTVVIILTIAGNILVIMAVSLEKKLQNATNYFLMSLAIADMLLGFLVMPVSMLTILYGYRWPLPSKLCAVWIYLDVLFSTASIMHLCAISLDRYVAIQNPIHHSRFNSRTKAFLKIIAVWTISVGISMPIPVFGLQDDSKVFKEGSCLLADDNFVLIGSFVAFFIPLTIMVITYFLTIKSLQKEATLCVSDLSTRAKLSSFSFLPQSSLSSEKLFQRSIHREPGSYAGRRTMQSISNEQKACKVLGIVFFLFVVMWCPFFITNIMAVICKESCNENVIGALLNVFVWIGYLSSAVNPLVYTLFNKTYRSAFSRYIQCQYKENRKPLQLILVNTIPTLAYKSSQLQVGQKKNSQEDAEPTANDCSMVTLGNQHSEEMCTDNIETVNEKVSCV", "UniProt P41595, whole entry": "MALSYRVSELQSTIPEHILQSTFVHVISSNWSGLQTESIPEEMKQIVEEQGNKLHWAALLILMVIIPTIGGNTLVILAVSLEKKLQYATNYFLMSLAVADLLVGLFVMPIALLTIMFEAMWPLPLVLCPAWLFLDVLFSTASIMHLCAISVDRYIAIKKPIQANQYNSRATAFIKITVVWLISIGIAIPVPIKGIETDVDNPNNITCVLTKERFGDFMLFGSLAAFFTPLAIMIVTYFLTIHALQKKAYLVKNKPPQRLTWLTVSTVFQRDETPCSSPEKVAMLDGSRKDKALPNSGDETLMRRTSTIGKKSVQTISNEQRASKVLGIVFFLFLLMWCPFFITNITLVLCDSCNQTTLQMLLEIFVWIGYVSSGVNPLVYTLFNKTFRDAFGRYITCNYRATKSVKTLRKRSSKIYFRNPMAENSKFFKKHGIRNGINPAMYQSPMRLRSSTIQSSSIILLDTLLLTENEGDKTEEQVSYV"}, "source": "patent US12343319B2", "about": "“Compositions and methods for treatment of diseases and disorders” (Atai Therapeutics Inc., priority 2023, dated 2025)", "key": {"[1]": {"molecular_target": "T1, 5-HT2A receptors in the mouse frontal cortex (Mus musculus, UniProt P35363)", "T1 construct": "Left frontal cortices from each animal were homogenized individually; from tissue", "assay": "Ex vivo 5-HT2A receptor occupancy ([3H]cimbi-36) in mouse frontal cortex", "settings": "15 minutes post dosing"}, "5-HT2C": {"molecular_target": "T2, 5-HT2C (Homo sapiens, UniProt P28335)", "T2 construct": "expressed in transfected cells", "T2 sequence (P28335 33-458)": "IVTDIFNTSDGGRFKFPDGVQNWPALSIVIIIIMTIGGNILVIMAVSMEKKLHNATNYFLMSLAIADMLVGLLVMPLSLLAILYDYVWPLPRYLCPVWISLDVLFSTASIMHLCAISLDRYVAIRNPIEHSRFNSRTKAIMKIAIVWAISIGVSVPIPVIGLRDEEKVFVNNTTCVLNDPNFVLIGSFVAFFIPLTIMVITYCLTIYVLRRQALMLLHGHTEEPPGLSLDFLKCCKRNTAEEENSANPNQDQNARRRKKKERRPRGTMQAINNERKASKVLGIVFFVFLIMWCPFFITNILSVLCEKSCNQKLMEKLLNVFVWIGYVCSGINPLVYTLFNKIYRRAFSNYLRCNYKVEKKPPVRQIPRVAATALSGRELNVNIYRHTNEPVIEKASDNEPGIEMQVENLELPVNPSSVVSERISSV", "assay": "Ca++ (calcium mobilization), 5-HT2C", "assay_type": "cell-based", "settings": "human 5-HT2C receptors", "protocol": "(§1) In vitro pharmacology studies were performed to evaluate the effects of compound 2-1 on functional activity of several 5-HT receptors using recombinant target overexpression cell culture systems. The effect of compound 2-1 on G protein-dependent signaling was investigated at 5-HT2A, 5-HT2B, and 5-HT2C receptors with calcium mobilization and IPOne assays; and at 5-HT1A, 5-HT1B, 5-HT1F, 5-HT5A, and 5-HT7D receptors with a cAMP assay. G protein-independent signaling was investigated at the 5-HT2A receptor with a β-Arrestin assay.\n(§2) In vitro pharmacology studies were performed to evaluate the effects of compound 2-2 on functional activity at several 5-HT receptors using recombinant target overexpression cell culture systems. The effect of compound 2-2 on G protein-dependent signaling was investigated at 5-HT2A, 5-HT2B, and 5-HT2C receptors with calcium mobilization and IPOne assays; and at 5-HT1A, 5-HT1B, 5-HT1F, 5-HT5A, and 5-HT7D receptors with a cAMP assay. G protein-independent signaling was investigated at the 5-HT2A receptor with a β-arrestin assay. […] In Table 4, 5-HT receptor selectivity was calculated using ΔΔlog(Emax/EC50). Assay reference α-Me-5-HT or 5-HT was used for normalization at each receptor (5-HT2A/5-HT2B selectivity=1; 5-HT2A/5-HT2C selectivity=1). ND in Table 4 indicates, not determined, plateau was not reached within the concentration range tested to determine Emax."}, "5-HT2B": {"molecular_target": "T3, 5-HT2B (Homo sapiens, UniProt P41595)", "T3 construct": "expressed in transfected cells", "assay": "IPOne, 5-HT2B", "assay_type": "cell-based", "settings": "human 5-HT2B receptor", "protocol": "as §1, §2"}, "[2]": {"test_system": "primary cortical rat neurons", "assay": "Synaptogenesis assay in primary cortical rat neurons", "assay_type": "cell-based", "settings": "0.5 μM and 0.1 μM, DIV1-DIV10", "protocol": "Pregnant rats for this study were purchased from a commercial breeder. Primary cortical neurons from E17/E18 rat pups were isolated and seeded in 96-well plates. Cells were treated with compound 2-2, FGF (Reference item) or vehicle. After incubation with the respective treatment, cortical neurons were stained for synapsin and tubulin using immunofluorescence.\nStained cells were imaged with the Cytation 5 Multimode reader. From each well, 9 images were taken at 10× magnification. Digital images from cortical neurons were analyzed for the following parameter using a software-supported automatic quantification method: Number of synapsin positive objects. Analysis was performed using Gen5 software. The experiment was run in n=10 technical replicates per condition. Vehicle control and FGF were included on each plate totaling n=20 technical replicates.\nPrimary cortical neurons were prepared from timed pregnant Spargue Dawley rats at E17/E18. Animals were sacrificed (see section 3.3.1) and embryos were dissected in Calcium and Magnesium free Hanks Balanced Salt Solution (CMF-HBSS) containing 15 mM HEPES and 10 mM NaHCO3, pH 7.2. Embryos were decapitated, skin and skull gently removed and hemispheres were separated. […]\nCells were counted in a hemacytometer and seeded in nutrition medium on poly-D-lysine pre-coated 96-well plates at a density of 1.5×10^4 cells/well. […]"}}, "note": "For at least one compound, name, drawing or mass did not settle the structure."}
{"compound": "COc1ccc(OC)c(CCNCc2cc(C)cc(F)c2)c1", "note": "[Compound 2-2, 2-(2,5-dimethoxyphenyl)-N-(3-fluoro-5-methylbenzyl)ethan-1-amine]", "values": [{"measurement": "Mean SB (specific binding)", "setting": "[1]; 1 mg/kg IP", "value": 1104, "unit": "dpm"}, {"measurement": "Mean SB (specific binding)", "setting": "[1]; 3 mg/kg IP", "value": 880, "unit": "dpm"}, {"measurement": "Mean SB (specific binding)", "setting": "[1]; 10 mg/kg IP", "value": 562, "unit": "dpm"}, {"measurement": "agonist activity (in words)", "setting": "5-HT2C", "value": "full agonist activity"}, {"measurement": "agonist activity (in words)", "setting": "5-HT2B", "value": "partial agonist activity"}, {"measurement": "synaptogenesis compared to VC (synapsin positive objects normalized to tubulin III area)", "setting": "[2]", "value": "significant increase"}]}
